Experimental data from article doi:10.1101/2022.05.07.491051 (bioRxiv, 2022).
No constants are given. Whether binding was seen depends on the method and setting.

Target: BcThsA^SIR2 (residues 1-284) (Bacilus cereus MSX-D12) (UniProt J8G6Z1)
Assay: SEC-MALS

B1: BcThsA^SIR2 (residues 1-284) (domain or fragment, UniProt J8G6Z1 1-284)
chain: MKMNPIVELFIKDFTKEVMEENAAIFAGAGLSMSVGYVSWAKLLEPIAQEIGLDVNKENDLVSLAQYYCNENQGNRGRINQIILDEFSRKVDLTENHKILARLPIHTYWTTNYDRLIEKALEEENKIADVKYTVKQLATTKVKRDAVVYKMHGDVEHPSEAVLIKDDYEKYSIKMDPYIKALSGDLVSKTFLFVGFSFTDPNLDYILSRVRSAYERDQRRHYCLIKKEERRPDELEADFEYRVRKQELFISDLSRFNIKTIVLNNYNEITEILQRIENNIKTKT
Q: With B1 as the binder, how does the binding read?
A: no binding
